No constants are given. Whether binding was seen depends on the method and setting. In cells and extracts the contact can be indirect. Here binding means that the protein was enriched with, or labelled near, the bait; the list need not be complete.
Target: Flag-tagged Caveolin-1 (UniProt Q03135)
Assay: affinity purification with mass spectrometry; Flag-tagged CAV1 overexpressed in HEK293 cells; proteins that interacted with CAV1 obtained by pulldown; protein profile analysis

By UniProt entry, the sequences of proteins in these tests, tags left out.
UniProt Q03135: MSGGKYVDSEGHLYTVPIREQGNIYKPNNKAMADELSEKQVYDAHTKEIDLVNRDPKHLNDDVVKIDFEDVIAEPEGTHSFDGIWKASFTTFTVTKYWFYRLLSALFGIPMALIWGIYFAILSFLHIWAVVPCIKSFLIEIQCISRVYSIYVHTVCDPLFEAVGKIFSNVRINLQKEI
UniProt Q99497: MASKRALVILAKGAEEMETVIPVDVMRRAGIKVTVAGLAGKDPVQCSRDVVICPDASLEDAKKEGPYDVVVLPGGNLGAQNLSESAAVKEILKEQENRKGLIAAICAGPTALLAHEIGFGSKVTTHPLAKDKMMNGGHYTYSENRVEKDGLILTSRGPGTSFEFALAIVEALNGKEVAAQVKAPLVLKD

binding: binds
Substance: Parkinson disease 7 (DJ-1) (from UniProt Q99497 1-189)

Source: publication PMC12394565
